Data as given in PubChem BioAssay AID504793 (Drosophila RNAi Screening Center, 2011).
Purpose: 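Genes required for cells to halt at G2/M after double-strand DNA breaks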 (primary screen). Cells: Drosophila S2R+ cells. Knock-down reagent: long dsRNA against Drosophila genes, about 0.25 µg dsRNA per well. Time to read-out: 4 days of dsRNA, then 4 hours of drug before read-out. Challenge: doxorubicin 0.5 µM for 4 hours to cause double-strand breaks, in cells also given a low, harmless dose of dsRNA against nbs to sensitise the assay. Measurement: 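Per-well count of mitotic cells stained for phospho-histone H3 after doxorubicin exposure, used as mitotic index; counts are raw and not normalised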. Direction: mitotic cells: higher = more cells in mitosis, weaker G2 arrest. Hit rule: 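Genes are called active only when high mitotic counts were reproduced with independent dsRNAs and mitosis was checked for delay without damage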. Meaning of the calls: active = confirmed in follow-up tests; inactive = not confirmed.
The screen tested about 23,000 reagents; below is a random part of those with a known target gene and a result. In the full data, 62 (0.27%) were called active. 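Calls come from follow-up tests whose scores are not deposited, so confirmed genes may have low counts here; counts are not normalised per plate.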 The raw values are shown without normalisation. Names joined by + are all predicted targets of the reagent.

no.	target gene	dsRNA	mitotic cells, replicate 1	activity call
1	uri (GeneID 37924)	DRSC04111	6	inactive
2	uri (GeneID 37924)	DRSC25077	9	inactive
3	mTTF (GeneID 34837)	DRSC01909	7	inactive
4	CG15023 (GeneID 38550)	DRSC08477	2	inactive
5	CG15023 (GeneID 38550)	DRSC25462	10	inactive
6	CG18747 (GeneID 59143)	DRSC15384	2	inactive
7	CG18747 (GeneID 59143)	DRSC26205	7	inactive
8	Twdlalpha (GeneID 326223)	DRSC19914	11	inactive
9	Twdlalpha (GeneID 326223)	DRSC28661	4	inactive
10	CR31700 (GeneID 8673969)	DRSC03682	9	inactive
11	Tm1 (GeneID 41852)	DRSC13082	6	inactive
12	Tm1 (GeneID 41852)	DRSC13083	11	inactive
13	Tm1 (GeneID 41852)	DRSC16886	2	inactive
14	Tm1 (GeneID 41852)	DRSC25249	1	inactive
15	Tm1 (GeneID 41852)	DRSC39135	5	inactive
16	comm (GeneID 39717)	DRSC11336	12	inactive
17	comm (GeneID 39717)	DRSC24259	7	inactive
18	egg (GeneID 37962)	DRSC04119	11	inactive
19	egg (GeneID 37962)	DRSC22534	5	inactive
20	egg (GeneID 37962)	DRSC28455	4	inactive
21	eIF3g1 (GeneID 31243)	DRSC18427	13	inactive
22	eIF3g1 (GeneID 31243)	DRSC29282	4	inactive
23	dpr2 (GeneID 3346227)	DRSC02370	5	inactive
24	dpr2 (GeneID 3346227)	DRSC02371	3	inactive
25	Ctr1A (GeneID 31601)	DRSC18336	3	inactive
26	Nmnat (GeneID 42987)	DRSC14644	5	inactive
27	Nmnat (GeneID 42987)	DRSC26899	3	inactive
28	CG4733 (GeneID 42368)	DRSC15634	13	inactive
29	CG32485 (GeneID 38363)	DRSC22666	15	inactive
30	CG17078 (GeneID 33195)	DRSC00484	7	inactive
31	CG17078 (GeneID 33195)	DRSC24862	8	inactive
32	CG7333 (GeneID 42334)	DRSC16229	7	inactive
33	CG9641 (GeneID 33502)	DRSC00721	4	inactive
34	CG9641 (GeneID 33502)	DRSC27080	2	inactive
35	CG8209 (GeneID 38888)	DRSC10970	9	inactive
36	CG8209 (GeneID 38888)	DRSC28217	8	inactive
37	CG12278 (GeneID 42486)	DRSC14494	1	inactive
38	CG8229 (GeneID 35898)	DRSC07114	2	inactive
39	CG8229 (GeneID 35898)	DRSC27067	5	inactive
40	RpL27 (GeneID 43103)	DRSC15638		inactive
41	RpL27 (GeneID 43103)	DRSC25890	11	inactive
42	CG7857 (GeneID 39671)	DRSC10925	3	inactive
43	CG7857 (GeneID 39671)	DRSC29862	8	inactive
44	spidey (GeneID 31703)	DRSC17932	9	inactive
45	spidey (GeneID 31703)	DRSC30107	8	inactive
46	CG1418 (GeneID 36035)	DRSC06447	6	inactive
47	CG1418 (GeneID 36035)	DRSC26354	9	inactive
48	roh (GeneID 246602)	DRSC04003	8	inactive
49	CG30274 (GeneID 246521)	DRSC04171	1	inactive
50	CG30274 (GeneID 246521)	DRSC29207	8	inactive
51	tgo (GeneID 41084)	DRSC17077	5	inactive
52	tgo (GeneID 41084)	DRSC29930	23	inactive
53	Eglp2 (GeneID 37737)	DRSC04294		inactive
54	mei-W68 (GeneID 2768853)	DRSC07649	5	inactive
55	CCDC151 (GeneID 39345)	DRSC10131	1	inactive
56	CCDC151 (GeneID 39345)	DRSC27319	5	inactive
57	CG11291 (GeneID 37541)	DRSC04097	6	inactive
58	CG10336 (GeneID 35122)	DRSC02037	6	inactive
59	CG1607 (GeneID 43707)	DRSC15130	7	inactive
60	CG1607 (GeneID 43707)	DRSC27010	9	inactive
61	Ucp4C (GeneID 33832)	DRSC03132	8	inactive
62	Ucp4C (GeneID 33832)	DRSC27836	2	inactive
63	eIF2gamma (GeneID 41843)	DRSC13081	8	inactive
64	eIF2gamma (GeneID 41843)	DRSC16873	1	inactive
65	eIF2gamma (GeneID 41843)	DRSC27837	2	inactive
66	CG14416 (GeneID 31273)	DRSC18639	10	inactive
67	CG14416 (GeneID 31273)	DRSC29804	8	inactive
68	Pex23 (GeneID 40229)	DRSC10323	1	inactive
69	Pex23 (GeneID 40229)	DRSC10645	1	inactive
70	Pex23 (GeneID 40229)	DRSC28370	4	inactive
71	CG14323 (GeneID 42121)	DRSC14802	7	inactive
72	Wnk (GeneID 40391)	DRSC23372	1	inactive
73	CG31199 (GeneID 42456)	DRSC15284	7	inactive
74	eIF1A (GeneID 44260)	DRSC16937	7	inactive
75	CG14352 (GeneID 33341)	DRSC00382		inactive
76	CG10211 (GeneID 35106)	DRSC02027	5	inactive
77	CG10211 (GeneID 35106)	DRSC28675	8	inactive
78	Pop5 (GeneID 39915)	DRSC10074	1	inactive
79	ine (GeneID 33659)	DRSC00822	9	inactive
80	ine (GeneID 33659)	DRSC28874	4	inactive
81	l(2)k01209 (GeneID 36953)	DRSC06889	5	inactive
82	l(2)k01209 (GeneID 36953)	DRSC29673	1	inactive
83	RpS10a (GeneID 43321)	DRSC14161	1	inactive
84	RpS10a (GeneID 43321)	DRSC26061	6	inactive
85	CG6280 (GeneID 36522)	DRSC06972	4	inactive
86	rudhira (GeneID 32136)	DRSC22111	13	inactive
87	rudhira (GeneID 32136)	DRSC23144	5	inactive
88	rudhira (GeneID 32136)	DRSC24869	7	inactive
89	cos (GeneID 35653)	DRSC07598	6	inactive
90	cos (GeneID 35653)	DRSC28447	4	inactive
91	ATPCL (GeneID 36760)	DRSC05913	10	inactive
92	ATPCL (GeneID 36760)	DRSC27809	3	inactive
93	CG8314 (GeneID 36757)	DRSC07144	5	inactive
94	Cpr50Ca (GeneID 36523)	DRSC05454	15	inactive
95	Cpr50Ca (GeneID 36523)	DRSC06372	4	inactive
96	Cpr50Ca (GeneID 36523)	DRSC06375	4	inactive
97	trio (GeneID 43974)	DRSC07928	24	inactive
98	trio (GeneID 43974)	DRSC08740	11	inactive
99	trio (GeneID 43974)	DRSC26700	7	inactive
100	CG9592 (GeneID 39585)	DRSC11078	4	inactive
101	CG14830 (GeneID 38800)	DRSC08876	14	inactive
102	CG14830 (GeneID 38800)	DRSC10200	4	inactive
103	CG14830 (GeneID 38800)	DRSC26586	7	inactive
104	CG9380 (GeneID 38011)	DRSC04549	5	inactive
105	Mt2 (GeneID 34632)	DRSC03374	6	inactive
106	CG16704 (GeneID 33589)	DRSC00475		inactive
107	CG18746 (GeneID 59142)	DRSC15383	3	inactive
108	Blos3 (GeneID 5740347)	DRSC09573	9	inactive
109	Amy-d + Amy-p	DRSC21242	7	inactive
110	Amy-d + Amy-p	DRSC24129	6	inactive
111	ms(3)K81 (GeneID 43232)	DRSC14746	3	inactive
112	hkb (GeneID 40549)	DRSC12377	10	inactive
113	hkb (GeneID 40549)	DRSC23599	7	inactive
114	SdhC (GeneID 41340)	DRSC16088	13	inactive
115	CG30269 (GeneID 37600)	DRSC04158	3	inactive
116	CG15472 (GeneID 31409)	DRSC18055	10	inactive
117	CG8892 (GeneID 33719)	DRSC03121	3	inactive
118	CG12384 (GeneID 36224)	DRSC06145	13	inactive
119	CG12384 (GeneID 36224)	DRSC28713	4	inactive
120	Hesr (GeneID 32800)	DRSC19965	14	inactive
121	RhoGAP5A (GeneID 31473)	DRSC18294	4	inactive
122	RhoGAP5A (GeneID 31473)	DRSC24778	6	inactive
123	CG15376 (retired record) (GeneID 31354)	DRSC18046	10	inactive
124	CG15376 (retired record) (GeneID 31354)	DRSC25097	3	inactive
125	CanA1 (GeneID 43670)	DRSC16600	7	inactive
126	CanA1 (GeneID 43670)	DRSC25868	5	inactive
127	CG31680 (GeneID 318881)	DRSC21878	9	inactive
128	Hmgcl (GeneID 33978)	DRSC02051	5	inactive
129	CG32813 (GeneID 31089)	DRSC17948	7	inactive
130	CG32813 (GeneID 31089)	DRSC24734	6	inactive
131	CG32944 (GeneID 40560)	DRSC12138	11	inactive
132	CG32944 (GeneID 40560)	DRSC12341	4	inactive
133	nAChRalpha7 (GeneID 32928)	DRSC20078	8	inactive
134	nAChRalpha7 (GeneID 32928)	DRSC20081	9	inactive
135	mRpL10 (GeneID 33182)	DRSC00312	8	inactive
136	CG31407 (GeneID 318716)	DRSC12761	6	inactive
137	CkIIbeta (GeneID 32132)	DRSC20230	15	inactive
138	Egfrap (GeneID 3885637)	DRSC09963	7	inactive
139	Egfrap (GeneID 3885637)	DRSC09964	6	inactive
140	Egfrap (GeneID 3885637)	DRSC25261	5	inactive

6 entries from above, sorted by “mitotic cells, replicate 1”, ascending.
target gene	dsRNA	mitotic cells, replicate 1	activity call
CG15023 (GeneID 38550)	DRSC08477	2	inactive
CG18747 (GeneID 59143)	DRSC15384	2	inactive
mTTF (GeneID 34837)	DRSC01909	7	inactive
CG18747 (GeneID 59143)	DRSC26205	7	inactive
uri (GeneID 37924)	DRSC25077	9	inactive
CG15023 (GeneID 38550)	DRSC25462	10	inactive
